Data reported in US20200377892A1.
No constants are given. Whether binding was seen depends on the method and setting. Binding seen in cells or lysates may run through a third protein. Some entries that bind do so weakly or less than the wild type.

Tests used:
[1] = target: HBV capsid protein (HBc) (hepatitis B virus) (UniProt P0C6G7); assay: proximity ligation assay in HBV-infected HepG2-NTCP cells
[2] = target: HBV capsid protein (HBc) (hepatitis B virus) (UniProt P0C6G7); assay: co-immunoprecipitation with anti-HBc antibody, Western blot, HepaRG-TR-HBc cells

histone chaperone HIRA (from UniProt P54198 1-1017)
binding [1]: binds | binding [2]: binds
